Test results published in patent publication US6410558B1, “Fungicides for the control of take-all disease of plants” (Monsanto Technology LLC, priority 1991, dated 2002).
Some entries share one result that the patent states for a list of compounds.

These compounds were tested on Gg (assay: Field Tests: seed treatment of wheat and barley in previously infested fields). Conditions: mixed with wheat and barley seed at 0.01 to 50 g active ingredient per kg of seed.
Assay type: in vivo, Gaeumannomyces graminis
In the case of `Cc1ccccc1NC(=O)c1c(Br)cccc1[Si](C)(C)C` [Example 120, 2-Bromo-N-(2-methylphenyl)-6-(trimethylsilyl)benzamide], the “incidence of Gg in previously infested fields compared to check fields seeded with untreated seed” value is reported as “reduce the incidence of Gg”. For `CCNC(=O)c1c(Cl)cccc1N(C)C(C)(C)C` [Example 190, 2-Chloro-6-[(1,1-dimethylethyl)methylamino]-N-ethylbenzamide], the “incidence of Gg in previously infested fields compared to check fields seeded with untreated seed” value was “reduce the incidence of Gg”. With `CCN(COC)C(=O)c1c(C)cccc1[Si](C)(C)C` [Example 127, N-Ethyl-N-(methoxymethyl)-2-methyl-6-(trimethylsilyl)benzamide] the “incidence of Gg in previously infested fields compared to check fields seeded with untreated seed” value was “reduce the incidence of Gg”. For `CCSC(=O)c1c(Cl)cccc1[Si](C)(C)C` [Example 77, 2-Chloro-6-(trimethylsilyl)benzenecarbothioic acid, S-ethyl ester], the “incidence of Gg in previously infested fields compared to check fields seeded with untreated seed” value was “reduce the incidence of Gg”. With `CCN(SC)C(=O)c1sccc1[Si](C)(C)C` [Example 272, N-Ethyl-N-(methylthio)-3-(trimethylsilyl)-2-thiophenecarboxamide] the “incidence of Gg in previously infested fields compared to check fields seeded with untreated seed” value was “reduce the incidence of Gg”. In the case of `CCOc1ccccc1NC(=O)c1c(Cl)cccc1[Si](C)(C)C` [Example 157, 2-Chloro-N-(2-ethoxyphenyl)-6-(trimethylsilyl)benzamide], the “incidence of Gg in previously infested fields compared to check fields seeded with untreated seed” value is reported as “reduce the incidence of Gg”. For `CCNC(=O)c1c(Cl)cccc1[Si](C)(C)C1CCCCC1` [Example 181, 2-Chloro-6-(cyclohexyldimethylsilyl)-N-ethylbenzamide], the “incidence of Gg in previously infested fields compared to check fields seeded with untreated seed” value was “reduce the incidence of Gg”. `CCNC(=O)c1c([Si](C)(C)C)ccc(C)c1Cl` [Example 230, 2-Chloro-N-ethyl-3-methyl-6-(trimethylsilyl)benzamide] was tested, and the “incidence of Gg in previously infested fields compared to check fields seeded with untreated seed” value was “reduce the incidence of Gg”. With `CCN(C(=O)c1c(Cl)cccc1[Si](C)(C)C)C(OC)C(C)(C)C` (stereo not shown) [Example 201, 2-Chloro-N-ethyl-N-(1-methoxy-2,2-dimethylpropyl)-6-(trimethylsilyl)benzamide] the “incidence of Gg in previously infested fields compared to check fields seeded with untreated seed” value was “reduce the incidence of Gg”. With `CCN(C(=O)OC(C)(C)C)C(=O)c1c(Cl)cccc1[Si](C)(C)C` [Example 211, [2-Chloro-6-(trimethylsilyl)benzoyl]ethylcarbamic acid, 1,1-dimethylethyl ester] the “incidence of Gg in previously infested fields compared to check fields seeded with untreated seed” value was “reduce the incidence of Gg”. `CCN(C(=O)c1cc(N(C)C)ccc1[Si](C)(C)C)C(OC)C(C)(C)C` (stereo not shown) [Example 222, 5-(Dimethylamino)-N-ethyl-N-(1-methoxy-2,2-dimethylpropyl)-2-(trimethylsilyl)benzamide] was tested, and the “incidence of Gg in previously infested fields compared to check fields seeded with untreated seed” value was “reduce the incidence of Gg”. `CCc1cccc([Si](C)(C)C)c1C(=O)N(CC)CC` [Example 44, N,N,2-Triethyl-6-(trimethylsilyl)benzamide] was tested, and the “incidence of Gg in previously infested fields compared to check fields seeded with untreated seed” value was “reduce the incidence of Gg”. With `CCN(CO)C(=O)c1c(C)cccc1[Si](C)(C)C` [Example 143, N-Ethyl-N-(hydroxymethyl)-2-methyl-6-(trimethylsilyl)benzamide] the “incidence of Gg in previously infested fields compared to check fields seeded with untreated seed” value was “reduce the incidence of Gg”. In the case of `CCNC(=O)c1c([Si](C)(C)C)ccc(CO)c1Cl` [Example 227, 2-Chloro-N-ethyl-3-(hydroxymethyl)-6-(trimethylsilyl)benzamide], the “incidence of Gg in previously infested fields compared to check fields seeded with untreated seed” value is reported as “reduce the incidence of Gg”. `CCN(CC)C(=O)c1c(C)cc(C)cc1[Si](C)(C)C` [Example 60, N,N-Diethyl-2,4-dimethyl-6-(trimethylsilyl)benzamide] was tested, and the “incidence of Gg in previously infested fields compared to check fields seeded with untreated seed” value was “reduce the incidence of Gg”. For `CCN(CC)C(=O)c1cccc(F)c1[Si](C)(C)C(C)(C)C` [Example 9, 2-[(1,1-Dimethylethyl)dimethylsilyl]-N,N-diethyl-3-fluorobenzamide], the “incidence of Gg in previously infested fields compared to check fields seeded with untreated seed” value was “reduce the incidence of Gg”. `C=C[Si](C)(c1ccccc1)c1cccc(Cl)c1C(=O)NCC` (stereo not shown) [Example 202, 2-Chloro-6-(ethenylmethylphenylsilyl)-N-ethylbenzamide] was tested, and the “incidence of Gg in previously infested fields compared to check fields seeded with untreated seed” value was “reduce the incidence of Gg”. With `CCNC(=O)c1c([Si](C)(C)C)ccc(/C=C/[N+](=O)[O-])c1Cl` [Example 241, 2-Chloro-N-ethyl-3-(2-(E)-nitro-ethenyl)-6-(trimethylsilyl)benzamide] the “incidence of Gg in previously infested fields compared to check fields seeded with untreated seed” value was “reduce the incidence of Gg”. For `CCNC(=O)c1c([Si](C)(C)C)ccc(OC)c1Cl` [Example 219, 2-Chloro-N-ethyl-3-methoxy-6-(trimethylsilyl)benzamide], the “incidence of Gg in previously infested fields compared to check fields seeded with untreated seed” value was “reduce the incidence of Gg”. For `CCNC(=O)c1ccccc1OC(C)(C)C` [Example 247, N-Ethyl-2-(1,1-dimethylethoxy)benzamide], the “incidence of Gg in previously infested fields compared to check fields seeded with untreated seed” value was “reduce the incidence of Gg”. For `CCN(CC)C(=O)c1ccc(C)cc1[Si](C)(C)C` [Example 58, N,N-Diethyl-4-methyl-2-(trimethylsilyl)benzamide], the “incidence of Gg in previously infested fields compared to check fields seeded with untreated seed” value was “reduce the incidence of Gg”. `CCNC(=O)c1c(Cl)cccc1[Si](C)(C)c1ccccc1` [Example 184, 2-Chloro-6-(dimethylphenylsilyl)-N-ethylbenzamide] was tested, and the “incidence of Gg in previously infested fields compared to check fields seeded with untreated seed” value was “reduce the incidence of Gg”. In the case of `CCN(CC)C(=O)c1c([Si](C)(C)C)ccc(Cl)c1Cl` [Example 84, N,N-Diethyl-2,3-dichloro-6-(trimethylsilyl)benzamide], the “incidence of Gg in previously infested fields compared to check fields seeded with untreated seed” value is reported as “reduce the incidence of Gg”. In the case of `CCN(CC)C(=O)c1sccc1[Si](C)(C)C` [Example 255, N,N-Diethyl-3-(trimethylsilyl)-2-thiophenecarboxamide], the “incidence of Gg in previously infested fields compared to check fields seeded with untreated seed” value is reported as “reduce the incidence of Gg”. For `CCN(COC)C(=O)c1ccccc1[Si](C)(C)C` [Example 50, N-Ethyl-N-(methoxymethyl)-2-(trimethylsilyl)benzamide], the “incidence of Gg in previously infested fields compared to check fields seeded with untreated seed” value was “reduce the incidence of Gg”. `C[Si](C)(C)c1ccc(F)c([Si](C)(C)C)c1C(=O)N1CCCC1` [Example 118, 1-[3-Fluoro-2,6-bis(trimethylsilyl)benzoyl]pyrrolidine] was tested, and the “incidence of Gg in previously infested fields compared to check fields seeded with untreated seed” value was “reduce the incidence of Gg”. With `CCNC(=O)c1sc([Si](C)(C)C)cc1[Si](C)(C)C` [Example 249, N-Ethyl-3,5-bis(trimethylsilyl)-2-thiophenecarboxamide] the “incidence of Gg in previously infested fields compared to check fields seeded with untreated seed” value was “reduce the incidence of Gg”. In the case of `Cc1ccc(F)c([Si](C)(C)C)c1C(=O)N(C)C(C)(C)C` [Example 11, N-(1,1-Dimethylethyl)-3-fluoro-N,6-dimethyl-2-(trimethylsilyl)benzamide], the “incidence of Gg in previously infested fields compared to check fields seeded with untreated seed” value is reported as “reduce the incidence of Gg”. For `CCNC(=O)c1c([Si](C)(C)C)ccc(C(F)F)c1Cl` [Example 224, 2-Chloro-3-(difluoromethyl)-N-ethyl-6-(trimethylsilyl)benzamide], the “incidence of Gg in previously infested fields compared to check fields seeded with untreated seed” value was “reduce the incidence of Gg”. For `CCN(CC)C(=O)c1c(Cl)cccc1[Si](C(C)C)(C(C)C)C(C)C` [Example 68, N,N-Diethyl-2-chloro-6-[tris(1-methylethyl)silyl]benzamide], the “incidence of Gg in previously infested fields compared to check fields seeded with untreated seed” value was “reduce the incidence of Gg”. `CC1CCCC(C)N1C(=O)c1c(Cl)cccc1[Si](C)(C)C` (stereo not shown) [Example 131, N-[2-Chloro-6-(trimethylsilyl)benzoyl]-2,6-dimethylpiperidine] was tested, and the “incidence of Gg in previously infested fields compared to check fields seeded with untreated seed” value was “reduce the incidence of Gg”. With `CCN(CC)C(=O)c1c(Cl)cc(C)cc1[Si](C)(C)C` [Example 59, N,N-Diethyl-2-chloro-4-methyl-6-(trimethylsilyl)benzamide] the “incidence of Gg in previously infested fields compared to check fields seeded with untreated seed” value was “reduce the incidence of Gg”. `C[Si](C)(C)c1cccc(Cl)c1C(=O)NCC#N` [Example 142, 2-Chloro-N-(cyanomethyl)-6-(trimethylsilyl)benzamide] was tested, and the “incidence of Gg in previously infested fields compared to check fields seeded with untreated seed” value was “reduce the incidence of Gg”. With `CCNC(=O)c1c(C)cccc1[Si](C)(C)C` [Example 48, N-Ethyl-2-methyl-6-(trimethylsilyl)benzamide] the “incidence of Gg in previously infested fields compared to check fields seeded with untreated seed” value was “reduce the incidence of Gg”. For `CCN(CC)C(=O)c1c([Si](C)(C)C)coc1[Si](C)(C)C` [Example 250, N,N-Diethyl-2,4-bis(trimethylsilyl)-3-furancarboxamide], the “incidence of Gg in previously infested fields compared to check fields seeded with untreated seed” value was “reduce the incidence of Gg”. With `C=CCNC(=O)c1sc(Cl)cc1[Si](C)(C)C` [Example 262, 5-Chloro-N-(2-propenyl)-3-(trimethylsilyl)-2-thiophenecarboxamide] the “incidence of Gg in previously infested fields compared to check fields seeded with untreated seed” value was “reduce the incidence of Gg”. `CCN(CC)C(=O)c1c(C(F)F)cccc1[Si](C)(C)C` [Example 97, 2-(Difluoromethyl)-N,N-diethyl-6-(trimethylsilyl)benzamide] was tested, and the “incidence of Gg in previously infested fields compared to check fields seeded with untreated seed” value was “reduce the incidence of Gg”. In the case of `CC(C)NC(=O)NC(=O)c1c(Cl)cccc1[Si](C)(C)C` [Example 173, 2-Chloro-N-(isopropylaminocarbonyl)-6-(trimethylsilyl)benzamide], the “incidence of Gg in previously infested fields compared to check fields seeded with untreated seed” value is reported as “reduce the incidence of Gg”. In the case of `CCCN(CCC)C(=O)c1ccccc1[Si](C)(C)C` [Example 13, N,N-Dipropyl-2-(trimethylsilyl)benzamide], the “incidence of Gg in previously infested fields compared to check fields seeded with untreated seed” value is reported as “reduce the incidence of Gg”. `CCN(CC)C(=O)c1c([Si](C)(C)C)ccc([Si](C)(C)C)c1Cl` [Example 86, N,N-Diethyl-2-chloro-3,6-bis(trimethylsilyl)benzamide] was tested, and the “incidence of Gg in previously infested fields compared to check fields seeded with untreated seed” value was “reduce the incidence of Gg”.
